# Literature values as cited in patent publication US11779591B2, “Compositions containing decitabine, 5azacytidine and tetrahydrouridine and uses thereof” (Epidestiny, Inc., priority 2015, dated 2023).
# Some of these results come from one statement about several compounds together.
# Conditions: destruction by cytidine deaminase (CDA)
structure (smiles),measurement,value
"Nc1ncn([C@@H]2O[C@H](CO)[C@@H](O)[C@H]2O)c(=O)n1 [5AZA, 5-azacytidine]",half-life in vivo,< 20 min
